The text below walks through data of the supplement of paper PMC10849652.

By UniProt entry, the sequences of proteins in these tests, tags left out. Where a name states a change or a piece, a line headed by the entry shows the natural chain unless it says otherwise.
UniProt Q9P2W9: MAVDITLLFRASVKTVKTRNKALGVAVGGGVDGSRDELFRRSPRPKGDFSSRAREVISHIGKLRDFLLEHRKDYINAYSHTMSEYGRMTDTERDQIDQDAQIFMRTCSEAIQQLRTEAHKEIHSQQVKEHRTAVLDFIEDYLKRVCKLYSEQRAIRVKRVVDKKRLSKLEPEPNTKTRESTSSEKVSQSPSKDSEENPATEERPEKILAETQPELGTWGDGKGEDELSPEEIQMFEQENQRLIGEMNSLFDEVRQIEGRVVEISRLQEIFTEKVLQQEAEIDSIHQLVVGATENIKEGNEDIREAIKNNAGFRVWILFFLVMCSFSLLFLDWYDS
UniProt Q92797: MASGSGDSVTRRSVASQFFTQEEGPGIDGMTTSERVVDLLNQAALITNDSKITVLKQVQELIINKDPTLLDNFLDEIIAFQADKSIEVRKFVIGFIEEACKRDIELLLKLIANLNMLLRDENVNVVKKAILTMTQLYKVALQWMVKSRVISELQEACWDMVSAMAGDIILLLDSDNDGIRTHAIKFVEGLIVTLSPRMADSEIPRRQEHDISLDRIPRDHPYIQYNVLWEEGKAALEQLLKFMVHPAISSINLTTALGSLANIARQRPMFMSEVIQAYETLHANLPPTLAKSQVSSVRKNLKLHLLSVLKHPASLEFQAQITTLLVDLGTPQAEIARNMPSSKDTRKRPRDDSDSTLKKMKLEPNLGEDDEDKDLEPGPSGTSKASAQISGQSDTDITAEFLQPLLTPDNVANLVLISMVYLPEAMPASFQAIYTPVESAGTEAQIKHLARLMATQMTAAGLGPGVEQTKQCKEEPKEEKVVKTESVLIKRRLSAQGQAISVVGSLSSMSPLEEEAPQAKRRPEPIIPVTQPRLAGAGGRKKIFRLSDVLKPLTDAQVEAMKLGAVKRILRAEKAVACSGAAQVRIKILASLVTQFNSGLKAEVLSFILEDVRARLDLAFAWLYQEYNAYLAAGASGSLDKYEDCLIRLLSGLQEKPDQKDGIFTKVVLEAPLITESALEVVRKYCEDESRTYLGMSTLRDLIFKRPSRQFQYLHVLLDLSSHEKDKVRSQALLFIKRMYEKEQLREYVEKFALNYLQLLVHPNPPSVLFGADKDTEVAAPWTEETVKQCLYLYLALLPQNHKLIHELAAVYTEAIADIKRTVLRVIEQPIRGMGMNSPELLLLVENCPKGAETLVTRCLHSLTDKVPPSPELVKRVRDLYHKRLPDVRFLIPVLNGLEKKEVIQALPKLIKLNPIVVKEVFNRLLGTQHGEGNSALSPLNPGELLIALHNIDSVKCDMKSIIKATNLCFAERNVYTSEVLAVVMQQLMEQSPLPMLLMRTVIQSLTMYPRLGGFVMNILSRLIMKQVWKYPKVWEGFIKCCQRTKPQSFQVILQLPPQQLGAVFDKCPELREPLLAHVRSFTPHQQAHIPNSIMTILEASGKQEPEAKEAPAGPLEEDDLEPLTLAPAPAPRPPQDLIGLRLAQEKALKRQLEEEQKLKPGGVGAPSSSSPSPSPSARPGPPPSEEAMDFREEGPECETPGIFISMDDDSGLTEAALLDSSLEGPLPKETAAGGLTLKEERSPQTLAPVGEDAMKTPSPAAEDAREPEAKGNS
UniProt Q15526: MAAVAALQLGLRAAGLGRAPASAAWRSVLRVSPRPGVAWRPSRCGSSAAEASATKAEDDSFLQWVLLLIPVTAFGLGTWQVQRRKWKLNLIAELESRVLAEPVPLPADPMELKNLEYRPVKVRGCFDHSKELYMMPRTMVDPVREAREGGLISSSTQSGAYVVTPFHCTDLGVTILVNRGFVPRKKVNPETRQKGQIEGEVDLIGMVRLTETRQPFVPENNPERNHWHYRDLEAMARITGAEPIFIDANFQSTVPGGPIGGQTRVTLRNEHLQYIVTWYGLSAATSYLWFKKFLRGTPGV
UniProt Q7L7X3: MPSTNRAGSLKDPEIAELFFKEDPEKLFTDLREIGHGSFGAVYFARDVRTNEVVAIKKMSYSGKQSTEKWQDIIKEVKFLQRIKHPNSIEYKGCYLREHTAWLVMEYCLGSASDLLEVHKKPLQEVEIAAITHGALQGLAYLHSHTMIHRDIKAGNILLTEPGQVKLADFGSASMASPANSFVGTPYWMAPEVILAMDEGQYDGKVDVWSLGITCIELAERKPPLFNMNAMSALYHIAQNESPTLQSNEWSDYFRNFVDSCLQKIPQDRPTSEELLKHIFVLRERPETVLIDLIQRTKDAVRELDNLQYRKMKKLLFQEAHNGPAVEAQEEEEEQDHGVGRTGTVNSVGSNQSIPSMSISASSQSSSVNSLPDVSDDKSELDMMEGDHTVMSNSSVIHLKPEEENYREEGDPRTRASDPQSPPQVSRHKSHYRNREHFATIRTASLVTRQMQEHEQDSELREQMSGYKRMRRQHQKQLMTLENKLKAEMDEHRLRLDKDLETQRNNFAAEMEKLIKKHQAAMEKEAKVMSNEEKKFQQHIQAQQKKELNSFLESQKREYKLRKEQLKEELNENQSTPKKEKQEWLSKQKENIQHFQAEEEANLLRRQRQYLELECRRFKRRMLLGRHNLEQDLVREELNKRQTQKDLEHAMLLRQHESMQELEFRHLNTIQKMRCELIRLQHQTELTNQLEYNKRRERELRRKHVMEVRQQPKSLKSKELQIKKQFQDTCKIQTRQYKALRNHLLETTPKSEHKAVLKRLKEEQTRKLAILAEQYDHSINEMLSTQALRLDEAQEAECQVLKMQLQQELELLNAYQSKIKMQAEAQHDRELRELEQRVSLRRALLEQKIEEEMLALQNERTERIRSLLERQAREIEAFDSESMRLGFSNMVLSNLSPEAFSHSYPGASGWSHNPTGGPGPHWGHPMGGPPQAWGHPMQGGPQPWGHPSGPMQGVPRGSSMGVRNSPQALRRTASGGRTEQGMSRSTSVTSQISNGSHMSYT
UniProt Q4KMP7: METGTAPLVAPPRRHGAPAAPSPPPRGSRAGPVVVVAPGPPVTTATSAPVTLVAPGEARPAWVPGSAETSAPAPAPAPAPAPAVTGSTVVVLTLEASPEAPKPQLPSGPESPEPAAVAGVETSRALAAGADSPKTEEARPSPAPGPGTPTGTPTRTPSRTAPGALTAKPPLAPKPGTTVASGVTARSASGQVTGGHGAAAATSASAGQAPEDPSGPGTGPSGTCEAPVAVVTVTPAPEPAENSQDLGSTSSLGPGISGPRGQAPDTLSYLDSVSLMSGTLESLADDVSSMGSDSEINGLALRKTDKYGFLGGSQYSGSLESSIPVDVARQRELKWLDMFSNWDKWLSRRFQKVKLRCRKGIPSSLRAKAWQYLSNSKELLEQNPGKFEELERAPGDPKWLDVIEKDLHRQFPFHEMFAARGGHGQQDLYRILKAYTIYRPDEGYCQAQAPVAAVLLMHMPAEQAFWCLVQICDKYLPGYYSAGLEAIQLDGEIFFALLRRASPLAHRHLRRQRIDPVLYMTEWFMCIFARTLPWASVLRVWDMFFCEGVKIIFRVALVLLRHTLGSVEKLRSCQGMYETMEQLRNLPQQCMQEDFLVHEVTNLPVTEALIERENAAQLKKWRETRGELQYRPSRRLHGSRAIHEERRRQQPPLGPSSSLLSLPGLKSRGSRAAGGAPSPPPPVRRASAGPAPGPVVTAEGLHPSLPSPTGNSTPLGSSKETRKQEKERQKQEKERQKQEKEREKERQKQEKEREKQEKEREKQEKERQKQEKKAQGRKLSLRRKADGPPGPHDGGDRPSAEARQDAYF
UniProt Q7RTN6: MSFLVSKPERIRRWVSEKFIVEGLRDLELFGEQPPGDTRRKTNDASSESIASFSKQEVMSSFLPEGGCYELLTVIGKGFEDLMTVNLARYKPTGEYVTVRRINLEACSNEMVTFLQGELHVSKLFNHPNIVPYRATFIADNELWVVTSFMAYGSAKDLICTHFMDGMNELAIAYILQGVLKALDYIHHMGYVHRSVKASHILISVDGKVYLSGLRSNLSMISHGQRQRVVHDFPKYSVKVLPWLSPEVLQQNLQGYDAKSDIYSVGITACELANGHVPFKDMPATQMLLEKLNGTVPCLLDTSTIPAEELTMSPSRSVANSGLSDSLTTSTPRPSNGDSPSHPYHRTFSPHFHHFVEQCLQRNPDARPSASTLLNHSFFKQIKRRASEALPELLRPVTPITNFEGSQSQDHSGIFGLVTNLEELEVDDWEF
UniProt Q15833: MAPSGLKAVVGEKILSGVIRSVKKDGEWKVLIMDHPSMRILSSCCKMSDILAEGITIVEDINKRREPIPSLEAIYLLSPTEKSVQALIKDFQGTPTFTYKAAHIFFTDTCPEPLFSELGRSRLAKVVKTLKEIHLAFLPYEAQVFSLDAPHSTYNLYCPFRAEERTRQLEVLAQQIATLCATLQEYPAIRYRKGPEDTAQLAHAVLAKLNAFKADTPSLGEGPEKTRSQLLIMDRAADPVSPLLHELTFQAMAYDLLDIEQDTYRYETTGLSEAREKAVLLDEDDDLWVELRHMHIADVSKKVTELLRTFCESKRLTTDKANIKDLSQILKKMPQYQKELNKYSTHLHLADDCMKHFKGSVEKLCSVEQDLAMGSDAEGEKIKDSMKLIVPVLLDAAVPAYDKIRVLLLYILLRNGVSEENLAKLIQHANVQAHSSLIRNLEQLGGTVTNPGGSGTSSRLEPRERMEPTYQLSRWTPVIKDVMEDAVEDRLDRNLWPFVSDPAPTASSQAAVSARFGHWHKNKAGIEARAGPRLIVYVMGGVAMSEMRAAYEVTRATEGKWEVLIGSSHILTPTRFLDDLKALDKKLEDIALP
UniProt Q6ICL3: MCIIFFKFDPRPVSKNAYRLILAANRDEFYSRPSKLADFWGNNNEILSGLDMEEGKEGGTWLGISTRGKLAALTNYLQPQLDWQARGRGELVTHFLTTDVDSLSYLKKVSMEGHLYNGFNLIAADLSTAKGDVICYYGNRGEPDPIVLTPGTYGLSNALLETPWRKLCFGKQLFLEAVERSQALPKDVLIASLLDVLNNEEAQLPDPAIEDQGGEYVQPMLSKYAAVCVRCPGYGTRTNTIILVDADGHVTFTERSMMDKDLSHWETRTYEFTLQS
UniProt O43752: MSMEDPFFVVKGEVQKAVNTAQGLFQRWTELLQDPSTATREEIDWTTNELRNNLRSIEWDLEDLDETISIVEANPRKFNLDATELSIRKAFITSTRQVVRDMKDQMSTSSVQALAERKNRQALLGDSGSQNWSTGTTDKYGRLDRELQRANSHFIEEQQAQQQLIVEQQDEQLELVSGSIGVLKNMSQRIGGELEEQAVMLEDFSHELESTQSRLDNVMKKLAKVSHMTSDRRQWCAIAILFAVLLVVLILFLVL
UniProt Q15633: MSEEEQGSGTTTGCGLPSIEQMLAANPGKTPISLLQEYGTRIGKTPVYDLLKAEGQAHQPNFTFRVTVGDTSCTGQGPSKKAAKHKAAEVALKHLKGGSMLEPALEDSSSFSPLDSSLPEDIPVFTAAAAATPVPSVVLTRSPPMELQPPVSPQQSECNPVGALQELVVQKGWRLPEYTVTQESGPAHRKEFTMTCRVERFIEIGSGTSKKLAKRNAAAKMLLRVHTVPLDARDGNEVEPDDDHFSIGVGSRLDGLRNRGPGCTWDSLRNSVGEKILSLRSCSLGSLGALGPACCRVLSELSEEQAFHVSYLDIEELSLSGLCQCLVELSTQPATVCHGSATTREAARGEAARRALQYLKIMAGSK
UniProt Q15208: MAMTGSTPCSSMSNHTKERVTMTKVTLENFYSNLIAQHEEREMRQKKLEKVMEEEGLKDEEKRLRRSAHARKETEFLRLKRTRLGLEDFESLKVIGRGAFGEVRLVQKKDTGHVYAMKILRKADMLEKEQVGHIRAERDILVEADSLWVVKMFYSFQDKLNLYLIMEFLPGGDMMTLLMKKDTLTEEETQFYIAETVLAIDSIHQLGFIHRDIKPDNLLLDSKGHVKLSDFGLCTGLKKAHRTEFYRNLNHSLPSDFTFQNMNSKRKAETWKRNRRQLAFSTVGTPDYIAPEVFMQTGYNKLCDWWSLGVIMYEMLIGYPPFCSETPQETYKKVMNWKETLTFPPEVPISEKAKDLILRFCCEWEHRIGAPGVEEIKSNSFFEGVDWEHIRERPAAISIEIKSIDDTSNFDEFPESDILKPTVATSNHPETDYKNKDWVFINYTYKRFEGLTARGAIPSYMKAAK
UniProt P37802: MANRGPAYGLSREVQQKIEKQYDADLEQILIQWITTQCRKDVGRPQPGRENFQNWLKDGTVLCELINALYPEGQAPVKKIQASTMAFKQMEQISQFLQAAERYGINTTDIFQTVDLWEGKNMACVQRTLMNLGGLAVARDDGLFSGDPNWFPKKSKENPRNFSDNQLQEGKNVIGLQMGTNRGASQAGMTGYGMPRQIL
UniProt Q86Y82: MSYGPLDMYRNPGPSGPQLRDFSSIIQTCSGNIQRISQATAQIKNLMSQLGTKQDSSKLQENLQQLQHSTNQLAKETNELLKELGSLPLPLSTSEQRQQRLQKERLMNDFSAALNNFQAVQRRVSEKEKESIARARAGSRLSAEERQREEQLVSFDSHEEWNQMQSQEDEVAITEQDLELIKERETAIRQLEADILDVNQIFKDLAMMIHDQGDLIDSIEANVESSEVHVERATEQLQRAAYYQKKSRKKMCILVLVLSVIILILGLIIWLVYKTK

This is one part of the list.

Compound in the assay: CO[C@H]1C[C@@H]2CC[C@@H](C)[C@@](O)(O2)C(=O)C(=O)N2CCCC[C@H]2C(=O)O[C@H]([C@H](C)C[C@@H]2CC[C@H](n3cnnn3)[C@H](OC)C2)CC(=O)[C@H](C)/C=C(\C)[C@@H](O)[C@@H](OC)C(=O)[C@H](C)C[C@H](C)/C=C/C=C/C=C/1C [zotarolimus]
As to the kind of experiment: log2 fold change, soluble protein after heating vs DMSO (PISA); higher = thermal stabilisation; K562 cells, 10 uM, 30 min; active = over 0.2 and 3.5 SD of the protein, either way, in both replicates (recomputed). The procedure, abridged: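 K562 cells at 2×10^6 cells/mL were exposed to 10 μM compound for 30 min, then aliquots were heated for 3 min across 48°C-58°C, pooled, and extracted in PBS containing 0.5% NP-40 at 4°C. The supernatant after 21,000xg for 90 min was taken as soluble protein and measured by TMTpro 16plex LC-MS/MS with channel sums equalised. Thermal stability is reported relative to control samples, with values from duplicates. Fold changes are given on a log2 scale.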
As for STX18 (UniProt Q9P2W9), the log2 fold change is inactive: -0.015.

As for SYMPK (UniProt Q92797), the log2 fold change was inactive: 0.07.

As for SURF1 (UniProt Q15526), the log2 fold change is inactive: -0.008.

With TANK (UniProt Q92844), the log2 fold change was inactive: -0.024.

Regarding TAOK1 (UniProt Q7L7X3), the log2 fold change is inactive: -0.032.

As for STRIP1 (UniProt Q5VSL9), the log2 fold change is inactive: 0.029.

On to STX4 (UniProt Q12846), for which the log2 fold change is inactive: -0.008.

With TBC1D10B (UniProt Q4KMP7), the log2 fold change is inactive: 0.011.

Take STRADA (UniProt Q7RTN6): the log2 fold change was inactive: -0.024.

As for STX5 (UniProt Q13190), the log2 fold change is inactive: 0.037.

Turning to STXBP2 isoform 3 (UniProt Q15833), the log2 fold change is inactive: -0.043.

Take SULT1A1 (UniProt P50225): the log2 fold change is inactive: 0.042.

Regarding SUGP1 (UniProt Q8IWZ8), the log2 fold change is inactive: 0.

In the case of TBC1D13 (UniProt Q9NVG8), the log2 fold change was inactive: 0.017.

Take STOM (UniProt P27105): the log2 fold change is inactive: -0.083.

With SYNCRIP (UniProt O60506), the log2 fold change was inactive: -0.037.

As to TANGO2 isoform 4 (UniProt Q6ICL3), the log2 fold change is inactive: 0.027.

Turning to STX6 (UniProt O43752), the log2 fold change was inactive: 0.026.

Consider TAOK3 (UniProt Q9H2K8), for which the log2 fold change was inactive: 0.002.

Turning to TARBP2 (UniProt Q15633), the log2 fold change is inactive: -0.125.

As for TACO1 (UniProt Q9BSH4), the log2 fold change is inactive: 0.016.

Regarding SURF2 (UniProt Q15527), the log2 fold change was inactive: 0.055.

For SYNCRIP isoform 3 (UniProt O60506), the log2 fold change was inactive: -0.022.

As to SUPT4H1 (UniProt P63272), the log2 fold change was inactive: -0.015.

In the case of TATDN3 isoform 3 (UniProt Q17R31), the log2 fold change was inactive: -0.145.

Take TACC1 isoform 2 (UniProt O75410): the log2 fold change is inactive: -0.025.

Take TAX1BP1 (UniProt Q86VP1): the log2 fold change is inactive: -0.009.

For the target STMN3 (UniProt Q9NZ72), the log2 fold change is inactive: -0.078.

Regarding TAF8 isoform 2 (UniProt Q7Z7C8), the log2 fold change was inactive: -0.008.

Regarding TARSL2 (UniProt A2RTX5), the log2 fold change is inactive: 0.068.

Regarding STRN (UniProt O43815), the log2 fold change is inactive: 0.052.

In the case of SUN1 isoform 9 (UniProt O94901), the log2 fold change was inactive: 0.162.

Turning to STK38 (UniProt Q15208), the log2 fold change is inactive: 0.036.

Regarding STOML2 (UniProt Q9UJZ1), the log2 fold change was inactive: 0.018.

Take TAGLN2 isoform 2 (UniProt P37802): the log2 fold change was inactive: 0.019.

In the case of STX12 (UniProt Q86Y82), the log2 fold change was inactive: -0.064.

As to SYNE2 isoform 2 (UniProt Q8WXH0), the log2 fold change is inactive: -0.057.

SULT1A3 isoform 3 (UniProt P0DMM9): the log2 fold change was inactive: -0.076.
